Data on one substance can be found in publication doi:10.1101/2022.07.07.499247.

The chains behind the UniProt entries cited, without tags or fusion partners.
UniProt Q7KQL5: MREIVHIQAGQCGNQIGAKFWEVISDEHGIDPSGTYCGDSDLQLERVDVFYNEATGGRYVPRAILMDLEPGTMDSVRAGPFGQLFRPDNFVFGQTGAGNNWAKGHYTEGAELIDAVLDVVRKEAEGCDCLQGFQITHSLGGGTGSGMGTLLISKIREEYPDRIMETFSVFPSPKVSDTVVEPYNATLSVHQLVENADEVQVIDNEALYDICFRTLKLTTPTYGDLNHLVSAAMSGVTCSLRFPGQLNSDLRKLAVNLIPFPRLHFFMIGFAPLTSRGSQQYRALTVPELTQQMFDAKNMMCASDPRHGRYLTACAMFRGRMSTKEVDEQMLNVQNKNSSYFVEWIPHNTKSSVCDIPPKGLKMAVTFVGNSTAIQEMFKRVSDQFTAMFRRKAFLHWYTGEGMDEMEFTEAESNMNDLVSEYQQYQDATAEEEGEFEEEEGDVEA

Results are given in words; binding and its absence hold for the method and conditions named. In cells and extracts the contact can be indirect. Some entries that bind do so weakly or less than the wild type.

The assay addresses T1, endogenous PfCoSP in Plasmodium falciparum parasite lysate (Plasmodium falciparum (endogenous in parasite lysate)) (UniProt Q8I248).
T1 sequence: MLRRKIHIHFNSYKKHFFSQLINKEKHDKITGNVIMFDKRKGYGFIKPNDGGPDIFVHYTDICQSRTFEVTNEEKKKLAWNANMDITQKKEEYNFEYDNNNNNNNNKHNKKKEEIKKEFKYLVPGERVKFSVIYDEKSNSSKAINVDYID
In words: co-IP.

Regarding “endogenous beta tubulin in Plasmodium falciparum parasite lysate (from UniProt Q7KQL5 1-445)”, the binding result was “binds”.
